# Measurements published in PubChem BioAssay (EPA / NIEHS).
# The chains behind the UniProt entries cited, without tags or fusion partners. Where a name states a change or a piece, a line headed by the entry shows the natural chain unless it says otherwise.
# UniProt P37231: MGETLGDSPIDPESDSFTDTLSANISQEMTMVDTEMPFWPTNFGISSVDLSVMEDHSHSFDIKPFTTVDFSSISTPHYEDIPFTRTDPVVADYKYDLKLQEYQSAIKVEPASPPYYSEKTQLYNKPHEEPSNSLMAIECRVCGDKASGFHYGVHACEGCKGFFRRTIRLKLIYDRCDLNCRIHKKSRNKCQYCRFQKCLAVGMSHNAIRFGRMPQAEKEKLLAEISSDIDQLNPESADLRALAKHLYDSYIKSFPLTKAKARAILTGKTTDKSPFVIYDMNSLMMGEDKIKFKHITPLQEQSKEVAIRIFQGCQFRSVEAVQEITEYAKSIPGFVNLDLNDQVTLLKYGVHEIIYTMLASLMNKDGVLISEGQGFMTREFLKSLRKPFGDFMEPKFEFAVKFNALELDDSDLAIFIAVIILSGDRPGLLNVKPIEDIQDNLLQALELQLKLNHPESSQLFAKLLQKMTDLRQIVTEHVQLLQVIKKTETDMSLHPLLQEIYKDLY
# UniProt O75469: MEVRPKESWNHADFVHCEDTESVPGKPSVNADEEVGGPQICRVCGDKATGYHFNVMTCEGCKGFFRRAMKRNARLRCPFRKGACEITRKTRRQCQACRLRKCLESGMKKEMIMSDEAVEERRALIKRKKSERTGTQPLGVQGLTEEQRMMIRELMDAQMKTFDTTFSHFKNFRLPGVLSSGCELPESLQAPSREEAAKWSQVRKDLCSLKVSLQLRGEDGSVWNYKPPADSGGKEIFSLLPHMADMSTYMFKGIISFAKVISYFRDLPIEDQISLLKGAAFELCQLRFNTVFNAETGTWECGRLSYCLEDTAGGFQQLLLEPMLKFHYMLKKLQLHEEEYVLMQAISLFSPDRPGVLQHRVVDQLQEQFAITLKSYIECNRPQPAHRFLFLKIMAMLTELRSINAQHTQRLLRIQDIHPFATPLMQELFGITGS
# UniProt P13631, whole entry, looked up: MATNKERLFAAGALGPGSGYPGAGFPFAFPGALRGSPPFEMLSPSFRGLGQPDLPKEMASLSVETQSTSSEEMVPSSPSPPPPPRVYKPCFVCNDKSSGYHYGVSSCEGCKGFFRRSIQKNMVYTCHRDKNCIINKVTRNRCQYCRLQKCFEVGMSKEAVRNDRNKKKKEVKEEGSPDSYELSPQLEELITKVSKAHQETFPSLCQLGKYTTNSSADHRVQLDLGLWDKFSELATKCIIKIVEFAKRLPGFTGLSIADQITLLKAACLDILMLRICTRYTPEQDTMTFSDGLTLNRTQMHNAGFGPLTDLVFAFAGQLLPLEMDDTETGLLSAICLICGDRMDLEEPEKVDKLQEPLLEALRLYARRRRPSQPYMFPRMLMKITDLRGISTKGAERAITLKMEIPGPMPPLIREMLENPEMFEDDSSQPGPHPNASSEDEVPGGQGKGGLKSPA
# UniProt Q92753: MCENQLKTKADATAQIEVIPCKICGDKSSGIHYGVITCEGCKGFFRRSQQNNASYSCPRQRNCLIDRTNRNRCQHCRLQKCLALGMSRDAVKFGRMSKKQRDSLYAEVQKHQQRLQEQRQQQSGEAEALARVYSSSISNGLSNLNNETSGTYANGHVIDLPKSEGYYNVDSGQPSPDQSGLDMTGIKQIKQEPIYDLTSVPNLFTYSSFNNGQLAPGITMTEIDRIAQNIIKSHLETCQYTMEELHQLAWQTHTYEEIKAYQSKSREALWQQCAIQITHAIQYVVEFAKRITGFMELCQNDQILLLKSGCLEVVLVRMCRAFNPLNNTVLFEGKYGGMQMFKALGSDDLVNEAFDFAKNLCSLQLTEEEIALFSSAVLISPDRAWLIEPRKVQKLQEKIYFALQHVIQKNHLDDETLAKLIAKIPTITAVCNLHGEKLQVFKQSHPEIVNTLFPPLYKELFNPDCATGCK
# UniProt P51449: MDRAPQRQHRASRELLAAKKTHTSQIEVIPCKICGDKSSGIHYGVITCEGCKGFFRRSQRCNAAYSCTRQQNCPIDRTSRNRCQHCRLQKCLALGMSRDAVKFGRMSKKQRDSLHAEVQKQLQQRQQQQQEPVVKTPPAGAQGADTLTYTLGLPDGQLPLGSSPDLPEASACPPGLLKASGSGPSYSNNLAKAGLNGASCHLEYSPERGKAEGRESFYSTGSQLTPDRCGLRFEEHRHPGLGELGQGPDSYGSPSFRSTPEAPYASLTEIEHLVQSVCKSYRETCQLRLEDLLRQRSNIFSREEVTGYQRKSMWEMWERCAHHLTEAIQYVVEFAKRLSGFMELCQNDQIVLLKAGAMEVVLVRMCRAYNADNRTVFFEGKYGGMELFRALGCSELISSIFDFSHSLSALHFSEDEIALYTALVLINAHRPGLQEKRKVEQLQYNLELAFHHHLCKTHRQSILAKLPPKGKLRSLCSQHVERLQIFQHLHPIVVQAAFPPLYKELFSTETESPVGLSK
# UniProt P28702: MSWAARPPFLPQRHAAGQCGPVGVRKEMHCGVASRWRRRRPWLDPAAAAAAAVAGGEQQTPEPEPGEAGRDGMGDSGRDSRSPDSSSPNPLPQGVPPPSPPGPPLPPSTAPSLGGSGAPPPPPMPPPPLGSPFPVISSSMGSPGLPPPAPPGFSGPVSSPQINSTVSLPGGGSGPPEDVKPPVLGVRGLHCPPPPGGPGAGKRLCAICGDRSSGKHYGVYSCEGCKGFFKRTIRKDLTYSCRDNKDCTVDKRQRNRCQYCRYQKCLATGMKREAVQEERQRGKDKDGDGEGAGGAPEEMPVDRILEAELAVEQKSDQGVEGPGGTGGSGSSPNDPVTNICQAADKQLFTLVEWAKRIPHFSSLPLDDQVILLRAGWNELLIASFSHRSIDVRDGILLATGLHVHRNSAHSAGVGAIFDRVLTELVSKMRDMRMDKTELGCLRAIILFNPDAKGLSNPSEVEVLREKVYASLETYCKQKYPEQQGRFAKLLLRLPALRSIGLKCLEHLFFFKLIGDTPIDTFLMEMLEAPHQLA
# UniProt P10827: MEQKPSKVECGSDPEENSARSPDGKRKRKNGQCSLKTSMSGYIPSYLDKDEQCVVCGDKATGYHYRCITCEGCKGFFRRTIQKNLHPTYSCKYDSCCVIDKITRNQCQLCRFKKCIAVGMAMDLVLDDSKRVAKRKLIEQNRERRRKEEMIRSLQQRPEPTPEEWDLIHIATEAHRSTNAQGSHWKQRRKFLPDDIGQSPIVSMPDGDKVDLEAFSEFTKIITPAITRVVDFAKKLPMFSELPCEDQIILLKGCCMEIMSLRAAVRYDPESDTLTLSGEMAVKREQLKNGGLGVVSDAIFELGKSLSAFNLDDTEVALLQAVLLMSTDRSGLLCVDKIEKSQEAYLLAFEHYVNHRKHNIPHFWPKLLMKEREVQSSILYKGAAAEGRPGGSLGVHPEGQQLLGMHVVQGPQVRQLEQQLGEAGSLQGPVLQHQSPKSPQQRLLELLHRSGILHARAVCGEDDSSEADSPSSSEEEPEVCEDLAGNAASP
# UniProt P11473: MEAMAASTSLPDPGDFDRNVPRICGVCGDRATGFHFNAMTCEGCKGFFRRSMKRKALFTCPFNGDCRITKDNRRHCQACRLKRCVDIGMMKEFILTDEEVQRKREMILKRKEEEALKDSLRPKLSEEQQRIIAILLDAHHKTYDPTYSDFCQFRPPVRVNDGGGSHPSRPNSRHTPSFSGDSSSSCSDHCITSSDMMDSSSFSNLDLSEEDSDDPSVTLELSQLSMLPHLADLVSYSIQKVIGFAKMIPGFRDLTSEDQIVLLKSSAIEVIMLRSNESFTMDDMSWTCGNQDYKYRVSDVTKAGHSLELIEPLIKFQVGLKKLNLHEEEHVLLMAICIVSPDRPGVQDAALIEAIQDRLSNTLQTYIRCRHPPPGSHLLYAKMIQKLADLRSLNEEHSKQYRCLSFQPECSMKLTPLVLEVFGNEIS
# UniProt P19793: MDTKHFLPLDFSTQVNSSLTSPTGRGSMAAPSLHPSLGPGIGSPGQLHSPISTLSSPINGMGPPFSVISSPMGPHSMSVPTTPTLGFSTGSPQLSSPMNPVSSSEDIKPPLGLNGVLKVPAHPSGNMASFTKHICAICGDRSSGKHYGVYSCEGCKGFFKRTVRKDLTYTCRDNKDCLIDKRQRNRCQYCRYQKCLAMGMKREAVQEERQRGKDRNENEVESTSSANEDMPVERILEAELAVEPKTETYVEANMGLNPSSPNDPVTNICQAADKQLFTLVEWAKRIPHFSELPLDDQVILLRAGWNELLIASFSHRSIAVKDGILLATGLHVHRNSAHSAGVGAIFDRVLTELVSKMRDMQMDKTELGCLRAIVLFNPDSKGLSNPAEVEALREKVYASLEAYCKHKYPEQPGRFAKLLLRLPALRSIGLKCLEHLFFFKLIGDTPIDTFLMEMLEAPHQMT
# This list was built around the results that the source calls inconclusive (neither active nor inactive); the mix of calls is not that of the screen. Potencies of inconclusive entries are doubtful fits and often do not repeat. The source made the active and inactive calls. The calls were made as follows: active = hit-call score of the fitted dose curve at least 0.9, where 1 is the maximum; inconclusive = response in the unintended direction; inactive = score below 0.9.
# Legend:
# [1] = target: Peroxisome proliferator-activated receptor gamma (Homo sapiens) (UniProt P37231); assay: ATG_PPARg_TRANS: Attagene TRANS-FACTORIAL HepG2 Assay for human Peroxisome Proliferator-activated Receptor-gamma (PPARg) (AID 2283007)
# Outline: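 Gain-of-signal endpoint relative to DMSO, derived from reporter mRNA levels quantified by RT-PCR and capillary electrophoresis. Cells were HepG2 transiently expressing a chimeric NR-Gal4 construct with GAL4-UAS reporters, exposed to chemicals for 24 h.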
# [2] = target: Nuclear receptor subfamily 1 group I member 2 (Homo sapiens) (UniProt O75469); assay: ATG_PXR_TRANS: Attagene TRANS-FACTORIAL HepG2 Assay for human Pregnane X Receptor (PXR) (AID 2283008)
# Outline: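 Trans-factorial format: exogenous NR-Gal4 fusion activity, not endogenous factor, in transfected human HepG2 liver cells. After 24 h dosing, RNA isolated, reverse-transcribed, amplified and resolved by capillary electrophoresis; induction scored versus DMSO.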
# [3] = target: human Retinoic Acid Receptor gamma (RARg), RARG (gene 5916) (UniProt P13631); assay: ATG_RARg_TRANS: Attagene TRANS-FACTORIAL HepG2 Assay for human Retinoic Acid Receptor gamma (RARg) (AID 2283009);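 as to AC50: AC50 is for reporter induction above DMSO meaning RARg activation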
# Outline: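 Gain-of-signal relative to DMSO is reported from fluorescent capillary electrophoresis of RT-PCR reporter products. These came from HepG2 cells expressing transfected RARg-GAL4 chimeras with UAS reporters, harvested 24 h after dosing.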
# [4] = target: human RAR-related Orphan Receptor beta (RORb), RORB (gene 6096) (UniProt Q92753); assay: ATG_RORb_TRANS: Attagene TRANS-FACTORIAL HepG2 Assay for human RAR-related Orphan Receptor beta (RORb) (AID 2283010);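 as to AC50: potency for increased reporter mRNA meaning activation of RORb-Gal4 chimera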
# Outline: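 Multiplexed transcription-factor reporter assay: HepG2 cells transiently carrying NR-Gal4/GAL4-UAS constructs, 24 h treatment, mRNA quantified by RT-PCR plus capillary electrophoresis fluorescence; activity scored as induction over DMSO.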
# [5] = target: human RAR-related Orphan Receptor gamma (RORg), RORC (gene 6097) (UniProt P51449); assay: ATG_RORg_TRANS: Attagene TRANS-FACTORIAL HepG2 Assay for human RAR-related Orphan Receptor gamma (RORg) (AID 2283011);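 as to AC50: potency for induction of reporter transcripts above DMSO so activators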
# Outline: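 First, HepG2 liver cells were transfected with GAL4-UAS-driven reporter constructs and the RORg-Gal4 fusion. Next, they were treated with chemical for 24 h. Finally, reporter mRNA was quantified by RT-PCR and capillary electrophoresis, with upward activity fitted against DMSO.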
# [6] = target: human Retinoid X Receptor beta (RXRb), RXRB (gene 6257) (UniProt P28702); assay: ATG_RXRb_TRANS: Attagene TRANS-FACTORIAL HepG2 Assay for human Retinoid X Receptor beta (RXRb) (AID 2283013)
# Outline: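 After a 24 h incubation with test chemical, transfected HepG2 cells carrying NR-Gal4 fusions and GAL4-UAS reporter transcription units yield RNA whose reporter cDNA is FAM-labelled, HpaI-cut and sized by capillary electrophoresis; increases over DMSO are scored.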
# [7] = target: human Thyroid Receptor alpha (THRa1), THRA (gene 7067) (UniProt P10827); assay: ATG_THRa1_TRANS: Attagene TRANS-FACTORIAL HepG2 Assay for human Thyroid Receptor alpha (THRa1) (AID 2283014)
# Outline: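 Reporter transcript induction, read by capillary electrophoresis of 6-FAM-labelled RT-PCR products, reflects activity of a transfected THRa1-Gal4 fusion in HepG2 liver cells. Cells were dosed for 24 h; activity was fitted in the positive direction against DMSO.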
# [8] = target: human Vitamin D Receptor (VDR), VDR (gene 7421) (UniProt P11473); assay: ATG_VDR_TRANS: Attagene TRANS-FACTORIAL HepG2 Assay for human Vitamin D Receptor (VDR) (AID 2283022)
# Outline: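 Steps: transfect HepG2 with GAL4-UAS-driven reporter constructs; dose compounds 24 h; isolate RNA, reverse-transcribe, PCR-amplify with 6-FAM-labelled primer extension and HpaI digestion; quantify fragments by capillary electrophoresis relative to DMSO.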
# [9] = target: Retinoic acid receptor RXR-alpha (Homo sapiens) (UniProt P19793); assay: ATG_RXRa_TRANS: Attagene TRANS-FACTORIAL HepG2 Assay for human Retinoid X Receptor alpha (RXRa) (AID 2283012)
# Outline: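 Chimeric NR-GAL4 trans-activation in HepG2, 24 h treatment; reporter transcripts quantified by fluorescence on capillary electrophoresis, analysed for upward change from DMSO.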
structure (smiles),measurement,setting,value
Cc1c[nH]c(=O)[nH]c1=O,AC50,[1],inconclusive: 100 µM
same,outcome,[2],inactive
same,outcome,[3],inactive
same,AC50,[4],inconclusive: 100 µM
same,AC50,[5],inconclusive: 100 µM
same,outcome,[6],inactive
same,outcome,[7],inactive
same,outcome,[8],inactive
CC1=CC(=O)c2ccccc2C1=O,outcome,[1],inactive
same,AC50,[2],active: 7.29 µM
same,outcome,[3],inactive
same,outcome,[4],inactive
same,AC50,[5],inconclusive: 11.1 µM
same,outcome,[6],inactive
same,outcome,[7],inactive
same,AC50,[8],inconclusive: 11.1 µM
Brc1ccc(Oc2ccc(Br)cc2Br)cc1,outcome,[1],inactive
same,AC50,[2],inconclusive: 100 µM
same,AC50,[3],inconclusive: 0.0823 µM
same,AC50,[4],inconclusive: 100 µM
same,outcome,[5],inactive
same,AC50,[9],inconclusive: 0.0823 µM
same,AC50,[6],inconclusive: 100 µM
same,AC50,[7],inconclusive: 100 µM
same,AC50,[8],inconclusive: 100 µM
COc1cccc(OC)c1O,AC50,[1],inconclusive: 100 µM
same,outcome,[2],inactive
same,AC50,[3],inconclusive: 60.8 µM
same,AC50,[4],inconclusive: 100 µM
same,AC50,[5],inconclusive: 100 µM
same,AC50,[9],inconclusive: 100 µM
same,AC50,[6],inconclusive: 100 µM
same,AC50,[7],inconclusive: 100 µM
same,AC50,[8],inconclusive: 100 µM
CC(C)(CO)C(O)C(=O)NCCCO (stereo not given),outcome,[1],inactive
same,AC50,[2],inconclusive: 100 µM
same,AC50,[3],inconclusive: 100 µM
same,outcome,[4],inactive
same,outcome,[5],inactive
same,AC50,[6],inconclusive: 100 µM
same,AC50,[7],inconclusive: 100 µM
CCCC(=O)OCC(COC(=O)CCC)OC(=O)CCC,AC50,[1],inconclusive: 100 µM
same,AC50,[2],inconclusive: 1.51 µM
same,AC50,[3],inconclusive: 19.8 µM
same,AC50,[4],inconclusive: 100 µM
same,outcome,[5],inactive
same,AC50,[6],inconclusive: 100 µM
same,AC50,[7],inconclusive: 100 µM
FCOC(C(F)(F)F)C(F)(F)F,AC50,[1],inconclusive: 150 µM
same,AC50,[2],inconclusive: 150 µM
same,outcome,[3],inactive
same,outcome,[4],inactive
same,AC50,[5],inconclusive: 150 µM
same,AC50,[6],inconclusive: 150 µM
COC(F)(F)C(F)(C(F)(F)F)C(F)(F)F,AC50,[1],inconclusive: 150 µM
same,AC50,[2],inconclusive: 150 µM
same,AC50,[3],inconclusive: 150 µM
same,outcome,[4],inactive
same,AC50,[5],inconclusive: 150 µM
same,AC50,[6],inconclusive: 150 µM

# 4 entries from above in another layout.
structure (smiles)	measurement	setting	value
Brc1ccc(Oc2ccc(Br)cc2Br)cc1	outcome	[1]	inactive
CC(C)(CO)C(O)C(=O)NCCCO (stereo not given)	AC50	[3]	inconclusive: 100 µM
same	outcome	[4]	inactive
CCCC(=O)OCC(COC(=O)CCC)OC(=O)CCC	AC50	[2]	inconclusive: 1.51 µM
